Several values for one entry are separate records, joined by “and”; a condition that tells them apart may be missing. Equal values may be shown once. Read-outs that look alike come from different tables or passages of the source. Part of at least one peptide drawing is inferred or uncertain, most often the ends. Square brackets hold non-standard residues; d marks the D form. Peptide text beside a SMILES is read from it. βAla = NCCC(=O)O
How the values were obtained:
[1] = system: Factor VIII; assay: Factor VIII knockdown by ADGN-100/CRISPR mRNA/F VIII gRNA in Balb C mice (plasma Factor VIII); format: in vivo; conditions: CRISPR mRNA/F VIII gRNA complex 0.5 mg/kg IV
[2] = system: PTEN; assay: PTEN mRNA delivery in cancer cells: PTEN expression by western blot; format: cell-based, human; conditions: U25 and PC3 cells; 0.5 and 1 μg PTEN mRNA in complex; western blot after 48 hrs; vs control cell types
[3] = system: P53 in Human Osteosarcoma cell G-292; assay: P53 mRNA delivery in osteosarcoma cells: P53 WT expression by western blot; format: cell-based; conditions: for change in P53 level (fold the background): 0.25 μg P53 mRNA in complex
[4] = system: Factor VIII; assay: Factor VIII knockdown by ADGN-100/siFVIII in Balb C mice (Factor VIII ELISA, plasma); format: in vivo; conditions: siFVIII 1.0 mg/kg, 10 μg IV in complex
[5] = system: P53; assay: P53 mRNA delivery in cancer cells: P53 expression by western blot; format: cell-based; conditions: 0.5 and 1 μg P53 WT mRNA in complex; western blot after 48 hrs; PANC-1, PC3, SKOV3
[6] = system: Human Osteosarcoma cell G-292; conditions: eGFP mRNA (0.5 ug) in complex, control
[7] = system: KRAS; assay: KRAS siRNA delivery: KRAS level by western blot; format: cell-based; conditions: KRAS siRNA (G12C) complex 20/1; 40 mM siRNA concentration; whatever the cancer cell types; 48 hours
[8] = system: Factor VIII; assay: Factor VIII mRNA delivery: recovery of Factor VIII level in siFVIII-treated mice (ELISA); format: in vivo; conditions: FVIII mRNA 10 μg single injection in complex
[9] = Particle size and charge of ADGN peptide/mRNA particles in the presence of serum (FCS); format: physicochemical; conditions: 30 min
[10] = system: Human Osteosarcoma cell G-292; assay: 5moU modified eGFP mRNA delivery and complex stability in serum, eGFP expression by flow cytometry at day 6; format: cell-based
[11] = system: Human Osteosarcoma cell G-292; assay: eGFP mRNA delivery in osteosarcoma cells: eGFP expression by flow cytometry; format: cell-based; conditions: eGFP mRNA complex
[12] = In vivo Luc mRNA delivery via nebulization/non-surgical intratracheal administration (bioluminescence); parameters: species or system mice; conditions: 10 μg 5 moU Luc mRNA via nebulization/intratracheal; 6 hrs and 24 hrs
[13] = system: cancer cells (PANC-1, U25, PC3, SKOV3); assay: KRAS siRNA delivery: cell viability (CellTiter-Glo) 5 days post-transfection; format: cell-based; conditions: KRAS siRNA (G12C) complex
[14] = system: Panc1-Luc tumor and metastases; assay: PTEN mRNA delivery in vivo, Panc1-Luc orthotopic metastases progression model (total luminescence); parameters: species or system mice; conditions: 10 μg PTEN mRNA (0.5 mg/kg) IV at day 0 and day 3; day 7
[15] = system: Factor VIII; assay: Factor VIII mRNA delivery by IV or SQ single injection in CRISPR FVIII mice: FVIII recovery (ELISA); format: in vivo; conditions: FVIII mRNA complex
[16] = system: Panc1-Luc pancreatic tumor; assay: KRAS siRNA G12C/G12D delivery in vivo, pancreas tumor xenograft model; parameters: species or system mice; conditions: 5 μg siRNA G12C/5 μg siRNA G12D KRAS (0.5 mg/kg) IV every 7 days; over 21 days
[17] = system: HS68 fibroblast cells; assay: KRAS siRNA delivery: cell viability (CellTiter-Glo) 5 days post-transfection; format: cell-based, human; conditions: KRAS siRNA (G12C) complex; non-transformed cells
[18] = Particle size, polydispersity and zeta potential of ADGN peptide/mRNA complexes in different buffers (DLS); format: physicochemical; conditions: peptide/Luc mRNA complex 20:1
[19] = system: Panc1-Luc pancreatic tumor; format: in vivo, mice; conditions: 10 μg PTEN mRNA IV every 7 days; 26 days

CC(C)C[C@H](NC(=O)[C@H](CCCNC(=N)N)NC(=O)[C@H](Cc1c[nH]c2ccccc12)NC(=O)[C@H](CCCNC(=N)N)NC(=O)[C@H](Cc1c[nH]c2ccccc12)NC(=O)CNC(=O)[C@H](C)NC(=O)[C@H](CO)NC(=O)[C@H](CCCNC(=N)N)NC(=O)[C@H](Cc1c[nH]c2ccccc12)NC(=O)[C@H](CCCCN)NC(=O)CCN)C(=O)N[C@@H](Cc1c[nH]c2ccccc12)C(=O)N[C@@H](CCCNC(=N)N)C(=O)N[C@H](C(=O)N[C@@H](CCCNC(=N)N)C(=O)N[C@@H](CO)C(=O)N[C@@H](Cc1c[nH]c2ccccc12)C(=O)N[C@@H](CO)C(=O)N[C@@H](CCCNC(=N)N)C(=O)O)C(C)C [ADGN-100]
CRISPR effect observed starting on [1]: 2 days | knockdown of Factor VIII protein level in the plasma ([1]; day 10): 75% and 75-78% | level of PTEN protein [2]: fully recovered | change in P53 level (fold the background) [3]: 1.2 fold | increase of level of P53 ([3]; 0.5 μg P53 mRNA in complex): 5 folds | increase of level of P53 ([3]; 1.0 μg P53 mRNA in complex): 7-8 folds | siRNA effect observed starting on [4]: 2 days | knockdown of Factor VIII protein level in the plasma ([4]; day 10): 72% | P53 protein expression [5]: efficient delivery of P53 WT mRNA leading to P53 protein expression

CC(C)C[C@H](NC(=O)CCN)C(=O)N[C@@H](Cc1c[nH]c2ccccc12)C(=O)N[C@@H](CCCNC(=N)N)C(=O)N[C@@H](C)C(=O)N[C@@H](CC(C)C)C(=O)N[C@@H](Cc1c[nH]c2ccccc12)C(=O)N[C@@H](CCCNC(=N)N)C(=O)N[C@@H](CC(C)C)C(=O)N[C@@H](Cc1c[nH]c2ccccc12)C(=O)N[C@@H](CCCNC(=N)N)C(=O)N[C@@H](CO)C(=O)N[C@@H](CC(C)C)C(=O)N[C@@H](Cc1c[nH]c2ccccc12)C(=O)N[C@@H](CCCNC(=N)N)C(=O)N[C@@H](CC(C)C)C(=O)N[C@@H](CC(C)C)C(=O)N[C@@H](Cc1c[nH]c2ccccc12)C(=O)N[C@@H](CCCCN)C(=O)N[C@@H](C)C(=O)O [ADGN-106] (H-[βAla]LWRALWRLWRSLWRLLWKA-OH)
inhibition of cell proliferation [6]: no inhibition in cell proliferation | reduction of level of KRAS [7]: more than 80% | time to total recovery of FVIII after mRNA administration [8]: 10 to 12 days | PI ([9]; GLUCOSE (5%) + FCS 20%): 0.268 ± 0.1 | PI ([9]; GLUCOSE (5%) + FCS 50%): 0.278 ± 0.1 | PI ([9]; SUCROSE (5%) + FCS 20%): 0.267 ± 0.1 | PI ([9]; SUCROSE (5%) + FCS 50%): 0.273 ± 0.1 | PI ([9]; WATER + FCS 50%): 0.291 ± 0.1 | decrease of eGFP expression ([10]; 3 hr incubation in 25% serum, whatever the mRNA used): 50-60% | eGFP expression level after incubation with serum ([10]; 3 hr incubation with 100% serum): No modification on eGFP expression level | increase of eGFP expression with 5 moU modified mRNA ([10]; eGFP mRNA 5moU vs unmodified, day 6): 25% | increase of eGFP expression (factor) ([11]; between 0.25 μg and 0.5 μg mRNA): 2 | increase of eGFP expression ([11]; between 0.5 and 1 μg mRNA): 25% | day of maximal protein expression ([11]; expression started at day 2, stable at day 7): 5 days | level of PTEN protein [2]: fully recovered | luciferase expression [12]: High luciferase expression was observed mainly in the lung | cancer cell proliferation [13]: significant decrease in cancer cell proliferation | change in P53 level (fold the background) [3]: 1.2 fold | increase of level of P53 ([3]; 0.5 μg P53 mRNA in complex): 5 folds | increase of level of P53 ([3]; 1.0 μg P53 mRNA in complex): 7-8 folds | metastasis development [14]: significantly limited metastasis development | time to recovery of FVIII after mRNA administration [15]: 15 days | reduction of tumor growth [16]: 77% | proliferation [17]: no changes in proliferation | P53 protein expression [5]: efficient delivery of P53 WT mRNA leading to P53 protein expression | PI ([18]; DMEM (20%)): 0.276 ± 0.1 | PI ([18]; DMEM (50%)): 0.312 ± 0.2 | PI ([18]; GLUCOSE (5%)): 0.252 ± 0.1 | PI ([18]; HEPES (7.4)): 0.258 ± 0.1 | PI ([18]; NACL (40 mM)): 0.241 ± 0.2 | PI ([18]; NACL (80 mM)): 0.261 ± 0.2 | PI ([18]; NACL (160 mM)): 0.271 ± 0.2 | PI ([18]; PBS (20%)): 0.278 ± 0.2 | PI ([18]; PBS (50%)): 0.259 ± 0.2 | PI ([18]; SUCROSE (5%)): 0.248 ± 0.1 | PI ([18]; WATER): 0.267 ± 0.1 | reduction of tumor growth [19]: 57%
